These are yes or no findings as the source states them, for the method shown. For part of these data: In cells and extracts the contact can be indirect. Some results given as binding are weak or reduced against the parent protein; the word gives no strength.
Columns and labels:
[1] = molecular target: T1, Cdc45-MCM-GINS (CMG) helicase (S. cerevisiae, UniProt P29469 1-868; P24279 1-971; P30665 1-933; P29496 1-775; P53091 1-1017; P38132 …); experiment: tandem affinity co-purification and glycerol gradient of co-expressed proteins; 15 proteins co-overexpressed in S. cerevisiae yJY74; anti-FLAG M2, Calmodulin Sepharose, 10-30% glycerol gradient; SDS-PAGE
T1 construct: Mcm2, S. cerevisiae, subunit of MCM in CMG; Mcm3, S. cerevisiae, subunit of MCM in CMG; Mcm4, S. cerevisiae, subunit of MCM in CMG; Mcm5, S. cerevisiae, subunit of MCM in CMG; Mcm6, S. cerevisiae, subunit of MCM in CMG; Mcm7, S. cerevisiae, subunit of MCM in CMG; Cdc45, S. cerevisiae, subunit of CMG; Psf1, S. cerevisiae, subunit of GINS in CMG; Psf2, S. cerevisiae, subunit of GINS in CMG; Psf3, …

The chains behind the UniProt entries cited, without tags or fusion partners. Where a name states a change or a piece, a line headed by the entry shows the natural chain unless it says otherwise.
UniProt P29469: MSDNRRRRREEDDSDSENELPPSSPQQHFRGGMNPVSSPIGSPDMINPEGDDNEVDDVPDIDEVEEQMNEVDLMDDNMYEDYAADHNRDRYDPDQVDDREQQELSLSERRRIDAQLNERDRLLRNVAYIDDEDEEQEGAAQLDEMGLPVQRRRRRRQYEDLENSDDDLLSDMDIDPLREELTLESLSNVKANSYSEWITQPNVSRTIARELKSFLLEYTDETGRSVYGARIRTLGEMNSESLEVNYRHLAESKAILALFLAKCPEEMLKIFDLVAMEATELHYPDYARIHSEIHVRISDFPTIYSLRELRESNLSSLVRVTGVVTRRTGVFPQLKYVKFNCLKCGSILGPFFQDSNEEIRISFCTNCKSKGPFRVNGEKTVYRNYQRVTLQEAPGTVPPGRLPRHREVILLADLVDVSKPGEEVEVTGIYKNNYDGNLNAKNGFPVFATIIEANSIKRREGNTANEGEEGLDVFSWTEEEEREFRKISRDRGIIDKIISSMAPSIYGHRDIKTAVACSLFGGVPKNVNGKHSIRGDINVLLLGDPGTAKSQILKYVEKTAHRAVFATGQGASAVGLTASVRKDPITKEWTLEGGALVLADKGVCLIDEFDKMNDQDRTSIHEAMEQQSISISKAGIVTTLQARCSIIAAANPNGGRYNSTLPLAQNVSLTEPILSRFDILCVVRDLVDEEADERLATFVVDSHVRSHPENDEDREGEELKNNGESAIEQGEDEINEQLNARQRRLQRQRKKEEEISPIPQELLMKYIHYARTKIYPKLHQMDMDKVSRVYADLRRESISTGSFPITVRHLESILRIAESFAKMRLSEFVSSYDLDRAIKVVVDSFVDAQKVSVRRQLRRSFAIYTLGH

Ctf4 (S. cerevisiae) = molecular target: T2, Ctf4 (S. cerevisiae) (UniProt Q01454); experiment: cross-linking; XL-MS: co-expressed complex of CMG, Ctf4, Csm3/Tof1 and Mrc1, calmodulin eluate cross-linked with 100-fold excess of DSBU, 60 min, room temperature; trypsin, LC-MS/MS, MeroX; cross-links residues within about 30 Å
T2 sequence: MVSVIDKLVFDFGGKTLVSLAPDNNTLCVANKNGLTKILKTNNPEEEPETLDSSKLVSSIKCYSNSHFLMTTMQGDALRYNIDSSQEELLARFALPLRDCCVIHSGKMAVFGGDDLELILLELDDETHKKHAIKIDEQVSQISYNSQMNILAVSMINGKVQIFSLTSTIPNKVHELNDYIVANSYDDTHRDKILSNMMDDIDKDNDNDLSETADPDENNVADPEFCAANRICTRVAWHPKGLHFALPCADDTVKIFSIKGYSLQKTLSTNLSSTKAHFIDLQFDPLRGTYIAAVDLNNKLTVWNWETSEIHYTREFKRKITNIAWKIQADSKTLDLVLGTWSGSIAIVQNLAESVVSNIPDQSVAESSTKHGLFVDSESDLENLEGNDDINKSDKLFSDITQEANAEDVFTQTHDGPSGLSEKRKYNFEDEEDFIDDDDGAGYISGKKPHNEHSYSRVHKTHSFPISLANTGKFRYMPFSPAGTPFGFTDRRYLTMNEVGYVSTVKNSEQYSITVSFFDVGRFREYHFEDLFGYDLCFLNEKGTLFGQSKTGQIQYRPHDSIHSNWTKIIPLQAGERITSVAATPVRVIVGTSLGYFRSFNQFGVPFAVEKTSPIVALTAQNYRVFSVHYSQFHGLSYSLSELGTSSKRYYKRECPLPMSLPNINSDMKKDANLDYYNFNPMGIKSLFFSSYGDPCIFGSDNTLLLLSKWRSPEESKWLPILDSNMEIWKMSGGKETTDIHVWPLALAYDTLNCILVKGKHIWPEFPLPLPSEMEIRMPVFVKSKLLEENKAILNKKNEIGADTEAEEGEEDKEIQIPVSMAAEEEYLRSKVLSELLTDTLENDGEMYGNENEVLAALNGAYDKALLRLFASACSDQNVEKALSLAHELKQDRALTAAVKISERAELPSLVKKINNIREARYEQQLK

[2] = molecular target: T1, Cdc45-MCM-GINS (CMG) helicase; experiment: co-sedimentation; 10-30% glycerol gradient without cross-linker; 0.5 μM CMG with 1.5 molar excess of fork DNA, Csm3/Tof1 (or mutant), Ctf4 and Mrc1; 500 μM AMP-PNP, 3 mM Mg(OAc)2, 150 mM NaOAc, pH 7.5; 200,000g, 4°C, 2 h; silver-stained SDS-PAGE of fractions; both purified

Measured: binding

B1: Mrc1 (natural protein, S. cerevisiae, UniProt P25588 1-1096, looked up)
chain: MDDALHALSSLTAKKRTTTYKKVAVPILDENDNTNGNGPNDIDNPPELTGNGFLFANATLNRVKNRLEGKKAPEQNHNNGKDRSENSLPTQLISNLYDGGEELEKSEVKDNSYSEKNVSSSFTQTQRIPVSIQQDKVFNVPIHSVNDGKPTQLIKEDGLVNETSQALKTPLTTGRPGATQRIDSSGATSQTQPIKSIEPQSQIITTSSNHSNALSPKIPIIPTELIGTSPLFQSIQNRGPDTQMDVPPQTAHDEDKTQAIGIPQATHQEQKTQIDTVAQTLQDEVPHTLKIREIQSELASEDSKREKARNVEYKKPQKPIPTKKFFSKESFLADFDDSSSNEDDDIKLENAHPKPVQNDDELHENKSVELNLTDETRINEKRVPLLSSYANNLKREIDSSKCITLDLDSDSDEYGDDDMDSIKLSKDESVLPISQLSKATILNLKARLSKQNQKLSQRPNKSKDPKVDHNVLLNTLRKASRKQILDHQKEVIETKGLKLEDMAKEKEIVENLLEQEILRNKRIRQKEKRREKLEENDFQLNAHDSGSDSGSESSGFALSGNEIADYESSGSENDNRRESDSEKEDDEIILKQKKSHHVKHIINESDSDTEVEAKPKEKADESLPKRIAINLGHYGDNIGEDTDKFQETNVLDTQNIEEVMAERNTIENEVKDDVYVNEEADEAIRRQLIDKEKLQLKQKEKEHEAKIKELKKRGVTNFFEMEAEESEDEWHGIGGADGEGSDDYDSDLEKMIDDYSKNNFNPHEIREMLAAENKEMDIKMINKILYDIKNGGFRNKRAKNSLELELSDDDEDDVLQQYRLKRRELMRKRRLEIGDDAKLVKNPKSSAFFESMVEDIIEYKNPFGAEEEYNLDITSTATDLDTQDNSINVGDNTGNNEQKPVDQKNKKVIISEDFVQKSLSFLKSNNYEDFETDKELSRIQHGNDEAIEDLYTLKQNSSIKSFTNSQTDSTTSKTVNTIIDLEKRPEDEDEVENGDTSLVGVFKHPSIIKSFASRTDINDKFKEGNKTVKILKSYKTVGSSKASITYMGKTRKLIAPKRKTEGSHRYHHDHHNKKMKMKTKTKSNKLFESGQDSFDN
notes: Mrc1, S. cerevisiae; printed as a 125 kDa protein; The FLAG purification is told for the separately purified protein; source: S. cerevisiae, overexpressed at 20°C, purified (anti-FLAG M2, Superose 6)
binds: all assays above

Reference: PMC7276988, “Cryo-EM Structure of the Fork Protection Complex Bound to CMG at a Replication Fork” (Molecular Cell, 2020)
